{
  "source": "patent US20060148699",
  "about": "(published 2006)",
  "key": {"[1]": {"experiment": "general procedure: Fmoc solid-phase peptide synthesis; Rink amide resin; 2-Cl-Trt resin (loading about 0.7 mmol/g); TBTU/HOBt with diisopropylethylamine or collidine", "conditions": "whole synthesis, scale of the general procedure 50 g to 250 g resin; for final purity (method not given): HPLC"}, "[2]": {"experiment": "peptide synthesis", "conditions": "whole synthesis, scale of the general procedure 50 g to 250 g resin"}},
  "note": "Square brackets hold non-standard residues; d marks the D form. * marks the point of attachment. hArg = N=C(N)NCCCC[C@H](N)C(=O)O; Acm = CC(=O)NC*; Mpa = O=C(O)CCS",
  "data": [
    {"substance": "Cys-Ser-Asn-Leu-Ser-Thr-Cys(Acm)-Val-Leu-Gly-Lys-Leu-Ser-Gln-Glu-Leu-His-Lys-Leu-Gln-Thr-Tyr-Pro-Arg-Thr-Asn-Thr-Gly-Ser-Gly-Thr-Pro-NH2", "values": [
      {"measurement": "final purity (method not given)", "setting": "[1]; TFA salt", "result": ">98.5", "unit": "%"},
      {"measurement": "final HPLC purity", "setting": "[1]; acetate", "result": ">99.5", "unit": "%"}
    ]},
    {"substance": "H-Cys(Acm)-Tyr-Ile-Gln-Asn-Cys-Pro-Leu-Gly-NH2", "values": [
      {"measurement": "final purity (method not given)", "setting": "[1]; acetate (citrate for Nesiritide)", "result": ">98.5", "unit": "%"}
    ]},
    {"substance": "H-Cys-Tyr-Phe-Gln-Asn-Cys(Acm)-Pro-Arg-Gly-NH2", "values": [
      {"measurement": "final purity (method not given)", "setting": "[1]; TFA salt", "result": ">98.5", "unit": "%"},
      {"measurement": "final purity (method not given)", "setting": "[1]; acetate", "result": ">99.0", "unit": "%"}
    ]},
    {"substance": "H-D-Phe-Cys-Phe-D-Trp-Lys-Thr-Cys(Acm)-Thr-ol", "values": [
      {"measurement": "final purity (method not given)", "setting": "[1]; TFA salt", "result": ">98.5", "unit": "%"}
    ]},
    {"substance": "Mpa-Tyr-Phe-Gln-Asn-Cys(Acm)-Pro-D-Arg-Gly-NH2", "values": [
      {"measurement": "final purity (method not given)", "setting": "[2]; HPLC, TFA salt", "result": ">98.5", "unit": "%"},
      {"measurement": "final HPLC purity", "setting": "[2]; acetate", "result": ">99.5", "unit": "%"}
    ]},
    {"substance": "[Mpa][hArg]GDWPC(Acm)-NH2", "values": [
      {"measurement": "final purity (method not given)", "setting": "[1]; TFA salt", "result": ">98.5", "unit": "%"}
    ]}
  ]
}
